Reference: patent US20220009979A1 (Alexion, published 2022)
No constants are given. Whether binding was seen depends on the method and setting. Some entries that bind do so weakly or less than the wild type.

Amino acid sequences for entries named in this document (tags omitted). Residues count along the entry.
UniProt P01024, residues 1002-1303: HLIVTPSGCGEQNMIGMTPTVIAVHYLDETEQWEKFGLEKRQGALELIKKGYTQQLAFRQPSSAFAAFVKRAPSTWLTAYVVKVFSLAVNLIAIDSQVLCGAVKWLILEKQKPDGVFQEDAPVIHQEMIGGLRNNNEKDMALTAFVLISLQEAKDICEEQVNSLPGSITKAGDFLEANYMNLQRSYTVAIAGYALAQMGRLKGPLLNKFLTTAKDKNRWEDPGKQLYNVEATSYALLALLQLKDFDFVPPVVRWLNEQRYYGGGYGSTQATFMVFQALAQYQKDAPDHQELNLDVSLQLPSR

Biological target: Purified C3d (Quidel, San Diego, Calif.) (UniProt P01024)
Assay: Octet Red BLI, biotinylated C3d on streptavidin biosensors, analyte at 2 uM

| Binder | binding |
| --- | --- |
| Compound AC (Fc fusion) ISCGSPPPILNGRISYYSTPIAVGTVIRYSCSGTFRLIGEKSLLCITKDKVDGTWDKPAPKCEYFNKYSSCPEPIVPGGYKIRGSTPYRHGDSVTFACKTNFSMNGQKSVWCQANNMWGPTRLPTCVSVFPGGGGSDAAVECPPCPAPPVAGPSVFLFPPKPKDTLMISRTPEVTCVVVDVSQEDPEVQFNWYVDGVEVHNAKTKPREEQFNSTYRVVSVLTVLHQDWLNGKEYKCKVSNKGLPSSIEKTISKAKGQPREPQVYTLPPSQEEMTKNQVSLTCLVKGFYPSDIAVEWESNGQPENNYKTTPPVLDSDGSFFLYSRLTVDKSRWQEGNVFSCSVMHEALHNHYTQKSLSLSLGKGGGGAGGGGAGGGAGGGGSEDCNELPPRRNTEILTGSWSDQTYPEGTQAIYKCRPGYRSLGNVIMVCRKGEWVALNPLRKCQKRPCGHPGDTPFGTFTLTGGNVFEYGVKAVYTCNEGYQLLGEINYRECDTDGWTNDIPICEVVKCLPVTAPENGKIVSSAMEPDREYHFGQAVRFVCNSGYKIEGDEEMHCSDDGFWSKEKPKCVEISCKSPDVINGSPISQKIIYKENERFQYKCNMGYEYSERGDAVCTESGWRPLPSCEEKS | binds |
| Compound AQ (Fc fusion) ISCGSPPPILNGRISYYSTPIAVGTVIRYSCSGTFRLIGEKSLLCITKDKVDGTWDKPAPKCEYFNKYSSCPEPIVPGGYKIRGSTPYRHGDSVTFACKTNFSMNGQKSVWCQANNMWGPTRLPTCVSVFPGGGGSDAAVECPPCPAPPVAGPSVFLFPPKPKDTLMISRTPEVTCVVVDVSQEDPEVQFNWYVDGVEVHNAKTKPREEQFNSTYRVVSVLTVLHQDWLNGKEYKCKVSNKGLPSSIEKTISKAKGQPREPQVYTLPPSQEEMTKNQVSLTCLVKGFYPSDIAVEWESNGQPENNYKTTPPVLDSDGSFFLYSRLTVDKSRWQEGNVFSCSVMHEALHNHYTQKSLSLSLGK | binds |
